# Assay results published in the supplement of paper PMC12024529.
# Structures can show the parent of a compound that is named as a salt. The list shows a part of the results. Baselines shift from plate to plate; read single values as rough.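 The cells are HEK293 lines stably expressing B-domain-deleted factor VIII fused to Gaussia luciferase, either wild type or a misfolding-prone missense mutant. Each score is mean luminescence from triplicate wells minus the DMSO mean, divided by the DMSO standard deviation; a score of 2 or more counts as a hit, and low scores may reflect lower secretion or poorer cell viability.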
# Key:
# [1] = test system: HEK293 WT BDD-FVIII-Gluc; assay: secreted FVIII-Gluc luciferase Z-score vs DMSO control; higher = more FVIII-Gluc secretion; conditions: 5 µM; 24 h
# [2] = test system: HEK293 p.N1941S BDD-FVIII-Gluc; assay: as above; conditions: 5 µM; 24 h
Compound,secreted FVIII-Gluc luciferase Z-score [1],secreted FVIII-Gluc luciferase Z-score [2]
CN(C(=O)CN(CCO)CC(=O)N(C)C(C)(C)Cc1ccccc1)C(C)(C)Cc1ccccc1 [Oxethazaine],inactive: -0.965,inactive: 0.253
CCOC(=O)[C@H](CCc1ccccc1)N[C@H]1CCc2ccccc2N(CC(=O)O)C1=O [Benazepril hydrochloride],inactive: 0.592,inactive: 0.175
CNC(=C[N+](=O)[O-])NCCSCc1ccc(CN(C)C)o1 [Ranitidine (Zantac)],inactive: -2.94,inactive: 0.313
Nc1nc(N)nc(-c2cc(Cl)ccc2Cl)n1 [Irsogladine],inactive: -2.31,inactive: -0.0661
CC(C(=O)O)c1cccc(Oc2ccccc2)c1 (stereo unspecified) [Fenoprofen calcium],inactive: 0.535,inactive: 0.391
CC(=O)OCC(=O)[C@@]1(O)[C@H](C)C[C@H]2[C@@H]3CCC4=CC(=O)C=C[C@]4(C)[C@@]3(F)[C@@H](O)C[C@@]21C [Dexamethasone acetate],active: 16.1,active: 3.86
CC1(C)O[C@@H]2[C@@H](CO[C@@]3(COS(N)(=O)=O)OC(C)(C)O[C@@H]23)O1 [Topiramate],inactive: 1.25,inactive: 0.413
CO[C@H]1C[C@@H]2CC[C@@H](C)[C@@](O)(O2)C(=O)C(=O)N2CCCC[C@H]2C(=O)O[C@H]([C@H](C)C[C@@H]2CC[C@@H](OCCO)[C@H](OC)C2)CC(=O)[C@H](C)/C=C(\C)[C@@H](O)[C@@H](OC)C(=O)[C@H](C)C[C@H](C)/C=C/C=C/C=C/1C [Everolimus (RAD001)],inactive: -1.07,inactive: -5.39
CCOC(=O)[C@H](CCc1ccccc1)N[C@@H](C)C(=O)N1Cc2ccccc2C[C@H]1C(=O)O [Quinapril HCl (Accupril)],inactive: -0.103,inactive: 0.175
CC(C)[C@H]1CC[C@H](C(=O)N[C@H](Cc2ccccc2)C(=O)O)CC1 [Nateglinide (Starlix)],inactive: -0.21,inactive: -0.383
O=C1CCc2cc(OCCCCc3nnnn3C3CCCCC3)ccc2N1 [Cilostazol],inactive: -3.41,inactive: -0.691
Cc1ccc2c(Cl)cc(Cl)c(O)c2n1 [Chlorquinaldol],inactive: -1.6,inactive: -0.574
CCCOc1ccc(C(=O)OCCN(CC)CC)cc1N [Proparacaine HCl],active: 2.26,inactive: 0.289
Cc1onc(-c2c(Cl)cccc2Cl)c1C(=O)N[C@@H]1C(=O)N2[C@@H]1SC(C)(C)[C@@H]2C(=O)O [Dicloxacillin Sodium],inactive: 0.729,inactive: 0.113
CN1CCN(C2=Nc3ccccc3Oc3ccc(Cl)cc32)CC1 [Loxapine Succinate],active: 12.9,active: 2.46
C=C1[C@H](CO)[C@@H](O)C[C@@H]1n1cnc2c(=O)[nH]c(N)nc21 [Entecavir hydrate],inactive: -1.45,inactive: -0.508
COCCOC(=O)C1=C(C)NC(C)=C(C(=O)OC/C=C/c2ccccc2)C1c1cccc([N+](=O)[O-])c1 (stereo unspecified) [Cilnidipine],inactive: -6.42,inactive: -1.31
CC(C)[N+]1(C)[C@@H]2CC[C@H]1C[C@@H](OC(=O)C(CO)c1ccccc1)C2 (stereo partly specified) [Ipratropium bromide],inactive: -3.03,inactive: -0.179
C=CC[C@@H]1/C=C(\C)C[C@H](C)C[C@H](OC)[C@H]2O[C@@](O)(C(=O)C(=O)N3CCCC[C@H]3C(=O)O[C@H](/C(C)=C/[C@@H]3CC[C@@H](O)[C@H](OC)C3)[C@H](C)[C@@H](O)CC1=O)[C@H](C)C[C@@H]2OC [FK-506 (Tacrolimus)],inactive: -3.11,inactive: -1.43
C[C@@](Cc1ccc(O)c(O)c1)(NN)C(=O)O [Carbidopa],inactive: -3.05,inactive: -3.51
Cc1c(OCC(F)(F)F)ccnc1C[S+]([O-])c1nc2ccccc2[nH]1 (stereo unspecified) [Lansoprazole],inactive: -5.8,inactive: -0.965
C=C(c1ccc(C(=O)O)cc1)c1cc2c(cc1C)C(C)(C)CCC2(C)C [Bexarotene],inactive: -1.97,inactive: 0.368
CCCCCCCCCCCCCCCC(=O)O[C@@H]1[C@@H](O)[C@@H](O)[C@@H]([C@H](NC(=O)[C@@H]2C[C@@H](CCC)CN2C)[C@H](C)Cl)O[C@@H]1SC [Clindamycin palmitate HCl],inactive: -2.92,inactive: -0.261
COC(=O)C1=C(C)NC(C)=C(C(=O)OCC(C)C)C1c1ccccc1[N+](=O)[O-] (stereo unspecified) [Nisoldipine (Sular)],inactive: -4.3,inactive: -0.749
O=c1[nH]c(=O)n([C@H]2C[C@H](O)[C@@H](CO)O2)cc1C(F)(F)F [Trifluridine (Viroptic)],inactive: -7.08,inactive: -2.92
CN1CCC[C@H]1c1cccnc1 [Nicotine Ditartrate],inactive: 0.042,inactive: 1.81
CCOC(=O)O[C@]1(C(=O)OCCl)CC[C@H]2[C@@H]3CCC4=CC(=O)C=C[C@]4(C)[C@H]3[C@@H](O)C[C@@]21C [Loteprednol etabonate],inactive: -1.58,inactive: -1.17

Compound,secreted FVIII-Gluc luciferase Z-score [1],secreted FVIII-Gluc luciferase Z-score [2]
Clc1ccc(C(Cn2ccnc2)OCc2csc3c(Cl)cccc23)c(Cl)c1 (stereo unspecified) [Sertaconazole nitrate],inactive: -1.94,inactive: -2.59
Cc1ccc(C(=O)c2cc(O)c(O)c([N+](=O)[O-])c2)cc1 [Tolcapone],inactive: -1.18,inactive: -1.13
CC(C)OC(=O)OCOP(=O)(CO[C@H](C)Cn1cnc2c(N)ncnc21)OCOC(=O)OC(C)C [Tenofovir Disoproxil Fumarate],inactive: -1.42,inactive: -1.02
CC(C(=O)O)c1cccc(C(=O)c2ccccc2)c1 (stereo unspecified) [Ketoprofen (Actron)],inactive: -1.65,inactive: -0.332
CN1CCN(CCCN2c3ccccc3Sc3ccc(Cl)cc32)CC1 [Prochlorperazine Dimaleate],inactive: -0.582,inactive: 1.44
CC1(C)S[C@@H]2[C@H](NC(=O)[C@H](N)c3ccccc3)C(=O)N2[C@H]1C(=O)O [Ampicillin Trihydrate],inactive: -0.779,inactive: 0.221
CCS(=O)(=O)CCn1c([N+](=O)[O-])cnc1C [tinidazole],inactive: -0.429,inactive: 0.59
COc1ccccc1OCCNCC(O)COc1cccc2[nH]c3ccccc3c12 (stereo unspecified) [Carvedilol],inactive: -2.3,inactive: -1.59
CCN(CC)CCOC(=O)C(c1ccccc1)c1ccccc1 [Adiphenine HCl],inactive: -0.552,inactive: -0.625
Nc1cc(C(Cl)=C(Cl)Cl)c(S(N)(=O)=O)cc1S(N)(=O)=O [Clorsulon],inactive: -2.64,inactive: -2.4
C[C@H](Cc1cc2c(c(C(N)=O)c1)N(CCCO)CC2)NCCOc1ccccc1OCC(F)(F)F [Silodosin (Rapaflo)],inactive: -1.04,inactive: -3.52
Nc1nc(Cl)nc2c1ncn2[C@H]1C[C@H](O)[C@@H](CO)O1 [Cladribine],inactive: -2.76,inactive: -9
O=C(O)CSCC(=O)NC1CCSC1=O (stereo unspecified) [Erdosteine],inactive: -2.7,inactive: -0.8
CNCCC(Oc1ccc(C(F)(F)F)cc1)c1ccccc1 (stereo unspecified) [Fluoxetine  HCl],inactive: -2.31,inactive: 0.173
CCN1CCCC1CNC(=O)c1cc(S(=O)(=O)CC)c(N)cc1OC (stereo unspecified) [Amisulpride],inactive: -0.309,inactive: -1.33
CCN[C@H]1CN(CCCOC)S(=O)(=O)c2sc(S(N)(=O)=O)cc21 [Brinzolamide],inactive: -1.39,inactive: -1.52
N#CC(c1ccc(Cl)cc1)c1c(Cl)cc(-n2ncc(=O)[nH]c2=O)cc1Cl (stereo unspecified) [Diclazuril],inactive: -0.341,inactive: -0.58
CN(C)CC/C=C1/c2ccccc2COc2ccc(CC(=O)O)cc21 [Olopatadine hydrochloride (Opatanol)],active: 2.08,inactive: -1.13
CCCCc1oc2ccccc2c1C(=O)c1cc(I)c(OCCN(CC)CC)c(I)c1 [Amiodarone HCl],inactive: -1.64,inactive: -1.2
COc1c2ccoc2cc2oc(=O)ccc12 [Bergapten],inactive: -1.09,inactive: -0.152
CCCNC(C)C(=O)Nc1ccccc1C (stereo unspecified) [Prilocaine],inactive: -1.04,inactive: 0.215
c1ccc(-c2ccc(C(c3ccccc3)n3ccnc3)cc2)cc1 (stereo unspecified) [Bifonazole],inactive: -1.61,inactive: -2.6
O=C(O)CCCN1CCC(O[C@@H](c2ccc(Cl)cc2)c2ccccn2)CC1 [Bepotastine Besilate],inactive: -0.634,inactive: -0.246
CCN(CC)CCOC(=O)c1ccc(N)cc1 [Procaine (Novocaine) HCl],inactive: 0.0349,inactive: 0.217
CC1(C)S[C@@H]2[C@H](NC(=O)[C@H](NC(=O)N3CCN(S(C)(=O)=O)C3=O)c3ccccc3)C(=O)N2[C@H]1C(=O)O [Mezlocillin Sodium],inactive: -0.655,inactive: 0.981
C=Cc1c(C)c2cc3nc(cc4[nH]c(cc5nc(cc1[nH]2)C(C)=C5CCC(=O)O)c(CCC(=O)OC)c4C)C1(C)C3=CC=C(C(=O)OC)C1C(=O)OC (stereo unspecified) [Verteporfin (Visudyne)],inactive: -7.99,inactive: -4.2

# Part of the list above, reformatted:
Compound | secreted FVIII-Gluc luciferase Z-score [1] | secreted FVIII-Gluc luciferase Z-score [2]
CNC(=C[N+](=O)[O-])NCCSCc1ccc(CN(C)C)o1 [Ranitidine (Zantac)] | inactive: -2.94 | inactive: 0.313
COC(=O)C1=C(C)NC(C)=C(C(=O)OCC(C)C)C1c1ccccc1[N+](=O)[O-] (stereo unspecified) [Nisoldipine (Sular)] | inactive: -4.3 | inactive: -0.749
Nc1nc(Cl)nc2c1ncn2[C@H]1C[C@H](O)[C@@H](CO)O1 [Cladribine] | inactive: -2.76 | inactive: -9
CCN[C@H]1CN(CCCOC)S(=O)(=O)c2sc(S(N)(=O)=O)cc21 [Brinzolamide] | inactive: -1.39 | inactive: -1.52
